In PubChem BioAssay AID651640 (Broad Institute, 2012):
The whole screen tested about 350,000 compounds, of which about 6,000 (1.7%) were called active. This list was built around the results that the source calls inconclusive (neither active nor inactive); the mix of calls is not that of the screen. No stated cut-off is given here; in the data, active means CPE inhibition above about 20% (passing the limit was not always enough); inconclusive means no clear call, values can overlap the other calls; tested in BHK-21 cells.

Assay: protection of cells from dengue 2 killing – plate reader, single concentration, primary screen (AID 651640);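 further: 0% = median of neutral control wells and 100% = median of positive control wells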
Conditions: DENV2-infected cells, cytopathic effect rescue, at 9.99 µM, active compounds read high

SMILES	CPE inhibition
CC(Cc1cccnc1)NC(=O)c1cc(COc2ccc(F)cc2Cl)on1 (stereo unspecified)	inconclusive: 29.6%
CC1CCN(C(=O)CNC(=O)CNS(=O)(=O)c2ccccc2)CC1	inconclusive: 34.8%
COc1ccccc1S(=O)(=O)N1CC[C@H]2[C@H](CO)Nc3ccc(-c4ccc(C#N)cc4)cc3[C@H]21	inconclusive: 42.7%
COc1ccccc1CNC(=O)C[C@@H]1C[C@H]2c3cc(N(C)C)ccc3O[C@H]2[C@H](CO)O1	inconclusive: 32.6%
CCC(=O)N1CC[C@@H]2[C@H]1c1cc(C#Cc3ccc(F)cc3)ccc1N[C@@H]2CO	inactive: -9.06%
Cc1cc(Oc2ccc(N)cn2)cc(C)c1Cl	inconclusive: 39.3%
C[C@H](CO)N1C[C@H](C)[C@@H](CN(C)CC2CCCCC2)Oc2c(NC(=O)Nc3ccc(C(F)(F)F)cc3)cccc2C1=O	inactive: -6.87%
O=C(NNC(=S)NC1CCCCC1)c1cccc(S(=O)(=O)Nc2ccccc2Cl)c1	inconclusive: 61.5%
CCC(=O)N1C[C@@H]2[C@H](c3ccccc31)[C@@H](CO)N2C(=O)Nc1ccccc1F	inactive: 14.6%
COc1ccc(S(=O)(=O)N(C)C[C@H]2Oc3c(NC(=O)C4CCCCC4)cccc3C(=O)N([C@H](C)CO)C[C@@H]2C)cc1	inconclusive: 31.4%
CCOC(=O)c1cc(OCC)c2c(ccc3ccccc32)n1	inconclusive: 20.7%
COc1ccc(S(=O)(=O)Nc2cccc3c2O[C@H](CN(C)Cc2ccncc2)[C@@H](C)CN([C@H](C)CO)C3=O)cc1	inconclusive: 40.9%
CCC(=O)Nc1ccc2c(c1)C(=O)N(C)C[C@@H](OC)[C@H](C)CN(CC1CC1)[C@H](C)CO2	inconclusive: 20.9%
CCOC(=O)c1sc(Nc2ccc(Br)cc2)nc1C	inconclusive: 26.3%
Nc1ccn([C@@H]2O[C@H](C(=O)Nc3ccc(C(=O)N4CCCCC4)cc3)[C@@H](O)[C@H]2O)c(=O)n1	inconclusive: 23.9%
C[C@H](CO)N1C[C@H](C)[C@H](CN(C)Cc2ccncc2)Oc2ccc(NC(=O)Cn3cnnn3)cc2CC1=O	active: 22.7%
COc1ccc(S(=O)(=O)N(C)C[C@@H]2Oc3ccc(NC(=O)Cc4cn(C)c5ccccc45)cc3CC(=O)N([C@H](C)CO)C[C@H]2C)cc1	inactive: -10.4%
C[C@H]1CN([C@@H](C)CO)C(=O)c2cc(NC(=O)CCC(F)(F)F)ccc2O[C@H]1CN(C)S(=O)(=O)c1ccccc1	inactive: 8.54%
Cc1ccc(OCCNC(=O)/C=C/c2ccccc2)cc1	active: 27.7%
CCCNC(=O)N1CC2(CCN(CC3CCCC3)CC2)c2c([nH]c3cc(OC)ccc23)[C@@H]1CO	active: 29.8%
C[C@H](CO)N1C[C@H](C)[C@@H](CN(C)C(=O)Cc2ccccn2)Oc2ncc(-c3cncnc3)cc2C1=O	inactive: 1.86%
COCCN1CC(=O)N2C(c3cccc(C)c3)c3[nH]c4ccccc4c3C[C@H]2C1=O (stereo partly specified)	inactive: 18.2%
CCCS(=O)(=O)NC(=O)C1(C)CCCN(C(=O)c2ccc3ccccc3n2)C1 (stereo unspecified)	inconclusive: 49.3%
COCCN(C[C@H]1[C@H](c2ccccc2)[C@@H](CO)N1C(C)=O)C(=O)c1ccncc1	active: 26.3%

SMILES	CPE inhibition
C[C@H]1CN([C@@H](C)CO)S(=O)(=O)c2ccc(C#CC3CCCC3)cc2O[C@@H]1CN(C)C	inactive: -6.12%
Cc1ccc(S(=O)(=O)CCC(=O)Nc2nnc(CC(C)C)s2)cc1	inconclusive: 54%
COc1ccccc1CNc1nc(Oc2cccc(F)c2)c2sccc2n1	inconclusive: 63.3%
C=CCn1c(=O)n(CCOC)c(=O)c2sc3ccccc3c21	inactive: 1.47%
C[C@H]1CN([C@@H](C)CO)C(=O)c2cc(/C=C/c3ccccc3)cnc2O[C@H]1CN(C)C(=O)c1ccccc1	inactive: 1.67%
O=C(NC(=S)N1CCN(c2ccccc2)CC1)c1c(F)cccc1F	active: 74.5%
C[C@H]1CN([C@@H](C)CO)C(=O)CCCn2nncc2CO[C@@H]1CN(C)C(=O)Nc1ccc(C(F)(F)F)cc1	inconclusive: 20.1%
Cc1noc(C)c1NC(=O)Nc1ccc2c(c1)C(=O)N([C@@H](C)CO)C[C@H](C)[C@H](CN(C)C(=O)NC1CCCCC1)OCCCC[C@@H](C)O2	active: 28.8%
C[C@H](CO)N1C[C@H](C)[C@H](CN(C)C(=O)Nc2ccc(C(F)(F)F)cc2)Oc2ccc(NC(=O)Nc3ccc(F)cc3)cc2CC1=O	inconclusive: 30.8%
CCCN(CC(=O)Nc1ccc(F)c(F)c1F)Cc1cc(=O)n2ccsc2n1	inactive: 7.26%
CNC[C@@H]1Oc2ccc(NC(=O)Nc3cccc4ccccc34)cc2CC(=O)N([C@@H](C)CO)C[C@H]1C	inactive: 5.41%
COc1ccc(CN(C)C[C@H]2OCCCC[C@@H](C)Oc3ccc(NC(=O)NC(C)C)cc3C(=O)N([C@@H](C)CO)C[C@@H]2C)cc1	inactive: -5.67%
CCCC#Cc1ccc2c(c1)O[C@H](CN(C)C(=O)COC)[C@@H](C)CN([C@H](C)CO)S2(=O)=O	active: 23.1%
CN1C(=O)c2cc(NC(=O)c3ccccc3)ccc2OC[C@@H]2O[C@H](CC(=O)O)CC[C@H]21	inconclusive: 34.5%
COc1ccc(CCN2CC(C(=O)N3CCN(C(C)=O)CC3)CCC2=O)cc1 (stereo unspecified)	inconclusive: 51.8%
O=C(c1cccnc1)N1CCC(Oc2ccc(C(=O)N3CCCC(O)C3)cc2)CC1 (stereo unspecified)	inactive: -0.818%
CC(=O)c1c(C)[nH]c(C(=O)OCC(=O)N2CC(C)OC(C)C2)c1C (stereo unspecified)	inconclusive: 53.9%
COCCNC(=O)C[C@H]1CC[C@H]2[C@@H](COC[C@H](O)CN2C(=O)Nc2ccccc2OC)O1	inconclusive: 37.2%
CO[C@H]1CN(C)C(=O)c2ccc(NC(=O)C3CCC3)cc2OC[C@@H](C)N(Cc2ccccn2)C[C@H]1C	inconclusive: 23.1%
COc1ccccc1S(=O)(=O)N[C@@H]1CC[C@@H](CC(=O)N2CCN(C)CC2)O[C@@H]1CO	inactive: 11.1%
Cc1noc(C)c1NC(=O)Nc1ccc2c(c1)CC(=O)N([C@@H](C)CO)C[C@@H](C)[C@H](CN(C)C(=O)Nc1ccc3c(c1)OCO3)O2	inconclusive: 21.2%
Cc1ccc(NC(=O)c2cc3ccccc3oc2=N)cc1	inactive: -6.69%
CC1(C(=O)Nc2cnc3ccccc3c2)CCN1Cc1ccc2c(c1)OCCO2 (stereo unspecified)	inconclusive: 31.4%
N#Cc1ccc2[nH]c(CO)c(-c3ccccc3)c2c1	inconclusive: 24%

SMILES	CPE inhibition
CCCn1c(N)c(C(=O)CSc2ncn[nH]2)c(=O)n(C)c1=O	inconclusive: 53.6%
C[C@@H]1CN([C@@H](C)CO)C(=O)CCCn2nncc2CO[C@H]1CN(C)C(=O)Nc1ccc2c(c1)OCO2	inconclusive: 62.8%
CCOC(=O)c1ccc(S(=O)(=O)N2CCN(C3CC(=O)N(c4ccc(OC)cc4)C3=O)CC2)cc1 (stereo unspecified)	inactive: -0.861%
CC(C)C#Cc1ccc2c(c1)O[C@H](CN(C)C(=O)c1ccccc1)[C@@H](C)CN([C@H](C)CO)S2(=O)=O	inconclusive: 52.2%
COC(=O)C(C(=O)OC)c1ncccc1[N+](=O)[O-]	inconclusive: 28.4%
C[C@@H]1CN([C@H](C)CO)C(=O)c2cccc(NC(=O)Nc3ccc4c(c3)OCO4)c2O[C@H]1CN(C)Cc1ccc(-c2ccccc2)cc1	inactive: -2.71%
C[C@@H]1CN([C@@H](C)CO)S(=O)(=O)c2ccc(C3=CCCCC3)cc2O[C@@H]1CN(C)C(=O)C1CCCCC1	inactive: 14.7%
CCOCC(=O)Nc1c(C(=O)N2CCN(c3ncccn3)CC2)oc2ccccc12	inactive: 3.58%
C/C=C/c1ccc([C@H]2[C@@H](CO)N(C(C)=O)[C@H]2CN(C)S(C)(=O)=O)cc1	inconclusive: 30.4%
CCCC(=O)N1CCC2(CC1)CN(S(C)(=O)=O)[C@H](CO)c1c2c2ccc(OC)cc2n1C	active: 58.8%
COc1ccccc1CC(=O)N1CCN(C(=O)c2ccco2)CC1	inconclusive: 67.4%
C[C@@H](O)C(C(=O)N1CCNCC1)n1cc([C@@H](N)CCCCN)nn1 (stereo partly specified)	inconclusive: 40.3%
O=C1[C@@H](Cc2ccccc2)CCn2cc(nn2)COCC2CCCN12 (stereo partly specified)	inconclusive: 24.7%
Cc1c(O)ccc2c(CN3CCN(C/C=C/c4ccccc4)CC3)cc(=O)oc12	inactive: 14.9%
Cc1ccc2nc(-c3cccc(Br)c3)c(Cc3ccsc3)n2c1	active: 24.4%
O=C1CCCC2=C1C(c1ccc(O)cc1)c1c(ccc3ccccc13)N2 (stereo unspecified)	inconclusive: 24.1%
COc1ccc(S(=O)(=O)N(C)C[C@@H]2Oc3c(NC(=O)C4CC4)cccc3C(=O)N([C@@H](C)CO)C[C@@H]2C)cc1	inconclusive: 51.4%
O=C(Nc1cccc(Cl)c1)N[C@H]1CC[C@@H](CCNC(=O)C2CCCCC2)O[C@H]1CO	inconclusive: 42.5%
CN(CCCn1ccc(N)nc1=O)Cc1ccco1	inconclusive: 46.7%
COc1ccc2c3c(n(C)c2c1)[C@@H](CO)N(C(=O)Nc1ccc(F)cc1)CC31CN(S(=O)(=O)c2cccs2)C1	active: 45.9%
CCCNC(=O)N1CC2(CCN(Cc3cccc(OC)c3)CC2)c2c(n(C)c3cc(OC)ccc23)[C@@H]1CO	inactive: -2.37%
C[C@H]1CCCCO[C@@H](CN(C)C(=O)C2CCCCC2)[C@@H](C)CN([C@@H](C)CO)C(=O)c2cc(NC(=O)Cc3ccccc3)ccc2O1	inactive: 9.63%
C[C@@H]1CN([C@H](C)CO)C(=O)c2cccc(NC(=O)Nc3ccccc3)c2O[C@@H]1CN(C)C(=O)NC1CCCCC1	inactive: -11%

Sorted by SMILES length (falling): some entries from above.
SMILES	CPE inhibition
C[C@H]1CCCCO[C@@H](CN(C)C(=O)C2CCCCC2)[C@@H](C)CN([C@@H](C)CO)C(=O)c2cc(NC(=O)Cc3ccccc3)ccc2O1	inactive: 9.63%
C[C@@H]1CN([C@H](C)CO)C(=O)c2cccc(NC(=O)Nc3ccc4c(c3)OCO4)c2O[C@H]1CN(C)Cc1ccc(-c2ccccc2)cc1	inactive: -2.71%
COc1ccc(S(=O)(=O)N(C)C[C@@H]2Oc3c(NC(=O)C4CC4)cccc3C(=O)N([C@@H](C)CO)C[C@@H]2C)cc1	inconclusive: 51.4%
C[C@@H]1CN([C@H](C)CO)C(=O)c2cccc(NC(=O)Nc3ccccc3)c2O[C@@H]1CN(C)C(=O)NC1CCCCC1	inactive: -11%
C[C@@H]1CN([C@@H](C)CO)S(=O)(=O)c2ccc(C3=CCCCC3)cc2O[C@@H]1CN(C)C(=O)C1CCCCC1	inactive: 14.7%
CC(C)C#Cc1ccc2c(c1)O[C@H](CN(C)C(=O)c1ccccc1)[C@@H](C)CN([C@H](C)CO)S2(=O)=O	inconclusive: 52.2%
C[C@@H]1CN([C@@H](C)CO)C(=O)CCCn2nncc2CO[C@H]1CN(C)C(=O)Nc1ccc2c(c1)OCO2	inconclusive: 62.8%
CCCNC(=O)N1CC2(CCN(Cc3cccc(OC)c3)CC2)c2c(n(C)c3cc(OC)ccc23)[C@@H]1CO	inactive: -2.37%
CCOC(=O)c1ccc(S(=O)(=O)N2CCN(C3CC(=O)N(c4ccc(OC)cc4)C3=O)CC2)cc1 (stereo unspecified)	inactive: -0.861%
C/C=C/c1ccc([C@H]2[C@@H](CO)N(C(C)=O)[C@H]2CN(C)S(C)(=O)=O)cc1	inconclusive: 30.4%
O=C(Nc1cccc(Cl)c1)N[C@H]1CC[C@@H](CCNC(=O)C2CCCCC2)O[C@H]1CO	inconclusive: 42.5%
Cc1c(O)ccc2c(CN3CCN(C/C=C/c4ccccc4)CC3)cc(=O)oc12	inactive: 14.9%
CCOCC(=O)Nc1c(C(=O)N2CCN(c3ncccn3)CC2)oc2ccccc12	inactive: 3.58%
O=C1CCCC2=C1C(c1ccc(O)cc1)c1c(ccc3ccccc13)N2 (stereo unspecified)	inconclusive: 24.1%
O=C1[C@@H](Cc2ccccc2)CCn2cc(nn2)COCC2CCCN12 (stereo partly specified)	inconclusive: 24.7%
CCCn1c(N)c(C(=O)CSc2ncn[nH]2)c(=O)n(C)c1=O	inconclusive: 53.6%
Cc1ccc2nc(-c3cccc(Br)c3)c(Cc3ccsc3)n2c1	active: 24.4%
COc1ccccc1CC(=O)N1CCN(C(=O)c2ccco2)CC1	inconclusive: 67.4%
COC(=O)C(C(=O)OC)c1ncccc1[N+](=O)[O-]	inconclusive: 28.4%
CN(CCCn1ccc(N)nc1=O)Cc1ccco1	inconclusive: 46.7%
